Laboratory results as given in paper PMC2754437.
These are yes or no findings as the source states them, for the method shown. In cells and extracts the contact can be indirect. Some binding calls cover weakened binding; strength is not graded here.

Protein sequences, listed by entry. Tags and fused reporters are not part of them. Lines headed by an entry give the natural chain unless they say otherwise; changes in a name come on top. Chains listed by the source or under a name are the forms on record and can include a tag or linker. Residues count along the entry.
UniProt Q04887: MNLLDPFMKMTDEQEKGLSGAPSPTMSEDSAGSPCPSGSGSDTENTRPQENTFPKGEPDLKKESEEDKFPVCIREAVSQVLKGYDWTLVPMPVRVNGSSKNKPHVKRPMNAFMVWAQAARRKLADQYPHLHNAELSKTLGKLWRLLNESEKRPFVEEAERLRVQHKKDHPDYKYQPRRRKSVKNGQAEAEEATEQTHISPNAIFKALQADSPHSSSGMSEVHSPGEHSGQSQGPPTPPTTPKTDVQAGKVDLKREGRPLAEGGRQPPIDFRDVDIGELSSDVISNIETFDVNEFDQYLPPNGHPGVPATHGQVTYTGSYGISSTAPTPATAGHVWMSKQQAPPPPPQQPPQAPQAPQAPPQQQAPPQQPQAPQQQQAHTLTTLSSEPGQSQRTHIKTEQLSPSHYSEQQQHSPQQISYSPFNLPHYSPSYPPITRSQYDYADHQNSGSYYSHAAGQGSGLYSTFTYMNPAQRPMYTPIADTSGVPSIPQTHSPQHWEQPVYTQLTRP
Flag-tagged Sox9 with mutation of all Sox9 methylation sites (residues 74, 152, 177, 178, and 179, R to K) (Q04887, form named): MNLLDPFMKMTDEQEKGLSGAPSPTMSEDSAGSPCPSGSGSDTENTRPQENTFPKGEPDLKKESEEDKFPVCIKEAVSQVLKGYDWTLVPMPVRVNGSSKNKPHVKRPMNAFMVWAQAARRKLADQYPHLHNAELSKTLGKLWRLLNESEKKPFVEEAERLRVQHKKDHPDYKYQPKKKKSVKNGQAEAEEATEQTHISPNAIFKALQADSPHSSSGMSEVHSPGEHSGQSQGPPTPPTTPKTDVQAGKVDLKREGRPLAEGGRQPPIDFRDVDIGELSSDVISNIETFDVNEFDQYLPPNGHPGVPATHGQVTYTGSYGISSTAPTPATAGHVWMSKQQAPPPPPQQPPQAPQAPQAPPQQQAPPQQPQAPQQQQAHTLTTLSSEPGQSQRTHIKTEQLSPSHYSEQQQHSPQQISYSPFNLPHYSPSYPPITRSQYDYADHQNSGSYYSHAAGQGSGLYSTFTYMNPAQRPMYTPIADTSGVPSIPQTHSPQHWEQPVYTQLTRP
UniProt P35222: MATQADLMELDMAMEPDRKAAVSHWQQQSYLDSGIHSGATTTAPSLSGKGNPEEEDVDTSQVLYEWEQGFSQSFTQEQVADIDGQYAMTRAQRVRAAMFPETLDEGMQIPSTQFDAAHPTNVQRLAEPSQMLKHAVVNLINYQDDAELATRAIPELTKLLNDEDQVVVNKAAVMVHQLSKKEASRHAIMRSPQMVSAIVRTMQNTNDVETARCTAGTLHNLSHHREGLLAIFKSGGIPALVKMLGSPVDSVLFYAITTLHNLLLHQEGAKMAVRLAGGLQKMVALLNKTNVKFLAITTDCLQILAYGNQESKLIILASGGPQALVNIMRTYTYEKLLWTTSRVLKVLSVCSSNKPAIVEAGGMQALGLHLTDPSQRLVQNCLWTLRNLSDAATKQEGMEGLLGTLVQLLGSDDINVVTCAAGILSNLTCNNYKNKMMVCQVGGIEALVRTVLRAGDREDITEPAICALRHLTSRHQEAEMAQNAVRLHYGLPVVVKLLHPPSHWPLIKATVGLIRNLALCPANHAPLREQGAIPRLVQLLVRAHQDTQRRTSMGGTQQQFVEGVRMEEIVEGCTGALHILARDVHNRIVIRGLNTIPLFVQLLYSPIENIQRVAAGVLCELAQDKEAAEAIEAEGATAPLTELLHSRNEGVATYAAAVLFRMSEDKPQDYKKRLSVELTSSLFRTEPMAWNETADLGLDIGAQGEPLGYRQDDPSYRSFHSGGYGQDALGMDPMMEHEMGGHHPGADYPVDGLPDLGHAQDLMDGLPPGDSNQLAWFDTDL

How the values were obtained:
[1] = target: Flag-tagged Sox9, wild type (UniProt Q04887); assay: co-IP; SW1353 cells transfected with wt or mutant Flag-Sox9; extracts in RIPA buffer (50 mM Tris-HCl pH 7.5, 200 mM NaCl, 1% Nonidet P-40); anti-Flag M2 precipitation, blot with anti-beta-catenin
[2] = target: Flag-tagged Sox9 with mutation of all Sox9 methylation sites (residues 74, 152, 177, 178, and 179, R to K) (UniProt Q04887); assay: as above
[3] = target: Flag-tagged Sox9, wild type (UniProt Q04887); assay: co-IP; as the co-IP from SW1353 cells, with CARM1 overexpressed (high-dose CARM1); anti-Flag M2 precipitation, blot with anti-beta-catenin
[4] = target: Flag-tagged Sox9 with mutation of all Sox9 methylation sites (residues 74, 152, 177, 178, and 179, R to K) (UniProt Q04887); assay: as above

Question: “endogenous beta-catenin (from UniProt P35222 1-781)” was tested. Which binding [1] did it give?
Answer: binds

Question: And the binding [2]?
Answer: binds

Question: And the binding [3]?
Answer: binds weakly

Question: And the binding [4]?
Answer: binds
